These are yes or no findings as the source states them, for the method shown. Binding seen in cells or lysates may run through a third protein. Here binding means that the protein was enriched with, or labelled near, the bait; the list need not be complete.
Target: biotin-tagged PSMD2 (RPN1) (human) (UniProt Q13200)
Experiment: affinity purification with mass spectrometry; proteasomes pulled down through biotin-tagged PSMD2 (RPN1) from engineered HCT116 cells; members identified by (crosslinking) MS

The chains behind the UniProt entries cited, without tags or fusion partners. Where a name states a change or a piece, a line headed by the entry shows the natural chain unless it says otherwise.
UniProt Q13200: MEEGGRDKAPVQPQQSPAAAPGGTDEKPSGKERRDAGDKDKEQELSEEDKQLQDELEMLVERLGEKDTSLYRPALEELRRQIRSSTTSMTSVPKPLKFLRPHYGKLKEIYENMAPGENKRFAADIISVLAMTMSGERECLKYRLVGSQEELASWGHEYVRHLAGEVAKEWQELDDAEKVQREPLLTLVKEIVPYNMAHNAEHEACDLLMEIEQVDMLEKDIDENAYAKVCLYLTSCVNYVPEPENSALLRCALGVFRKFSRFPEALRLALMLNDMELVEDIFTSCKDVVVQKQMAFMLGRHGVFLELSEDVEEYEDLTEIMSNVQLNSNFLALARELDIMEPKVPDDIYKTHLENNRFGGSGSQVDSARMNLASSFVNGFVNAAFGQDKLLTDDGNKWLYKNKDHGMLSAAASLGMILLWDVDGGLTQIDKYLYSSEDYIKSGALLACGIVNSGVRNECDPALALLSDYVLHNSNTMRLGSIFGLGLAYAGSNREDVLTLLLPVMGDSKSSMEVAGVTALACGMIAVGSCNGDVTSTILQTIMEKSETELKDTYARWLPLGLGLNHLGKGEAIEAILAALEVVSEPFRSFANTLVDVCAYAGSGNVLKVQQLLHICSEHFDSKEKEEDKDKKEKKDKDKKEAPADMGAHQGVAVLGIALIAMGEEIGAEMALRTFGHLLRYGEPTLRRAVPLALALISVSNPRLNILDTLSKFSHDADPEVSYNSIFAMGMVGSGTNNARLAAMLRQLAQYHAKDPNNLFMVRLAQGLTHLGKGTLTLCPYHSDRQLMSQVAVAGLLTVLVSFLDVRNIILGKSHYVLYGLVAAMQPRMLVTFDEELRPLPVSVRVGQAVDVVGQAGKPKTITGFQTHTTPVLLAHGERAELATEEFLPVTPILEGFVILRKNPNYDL
UniProt P55036: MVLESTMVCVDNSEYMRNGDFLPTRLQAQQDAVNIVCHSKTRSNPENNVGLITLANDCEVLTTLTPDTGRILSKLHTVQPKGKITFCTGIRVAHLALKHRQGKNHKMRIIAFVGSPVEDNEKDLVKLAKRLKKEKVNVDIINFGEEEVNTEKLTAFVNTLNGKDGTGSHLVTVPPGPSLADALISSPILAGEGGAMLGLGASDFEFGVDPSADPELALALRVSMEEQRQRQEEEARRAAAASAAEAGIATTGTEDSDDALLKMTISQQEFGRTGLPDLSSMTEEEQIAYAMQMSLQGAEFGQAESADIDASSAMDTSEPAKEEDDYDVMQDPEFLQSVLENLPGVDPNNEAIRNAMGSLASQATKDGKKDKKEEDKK

binding: binds
Substance: PSMD4 (RPN10) (from UniProt P55036 1-377)

Source: PMC12682122
